Results are given in words; binding and its absence hold for the method and conditions named. Binding seen in cells or lysates may run through a third protein. Some entries that bind do so weakly or less than the wild type.
Biological target: T1, RAG1 (human (endogenous in U87 and Nalm6)) (UniProt P15918)
T1 sequence: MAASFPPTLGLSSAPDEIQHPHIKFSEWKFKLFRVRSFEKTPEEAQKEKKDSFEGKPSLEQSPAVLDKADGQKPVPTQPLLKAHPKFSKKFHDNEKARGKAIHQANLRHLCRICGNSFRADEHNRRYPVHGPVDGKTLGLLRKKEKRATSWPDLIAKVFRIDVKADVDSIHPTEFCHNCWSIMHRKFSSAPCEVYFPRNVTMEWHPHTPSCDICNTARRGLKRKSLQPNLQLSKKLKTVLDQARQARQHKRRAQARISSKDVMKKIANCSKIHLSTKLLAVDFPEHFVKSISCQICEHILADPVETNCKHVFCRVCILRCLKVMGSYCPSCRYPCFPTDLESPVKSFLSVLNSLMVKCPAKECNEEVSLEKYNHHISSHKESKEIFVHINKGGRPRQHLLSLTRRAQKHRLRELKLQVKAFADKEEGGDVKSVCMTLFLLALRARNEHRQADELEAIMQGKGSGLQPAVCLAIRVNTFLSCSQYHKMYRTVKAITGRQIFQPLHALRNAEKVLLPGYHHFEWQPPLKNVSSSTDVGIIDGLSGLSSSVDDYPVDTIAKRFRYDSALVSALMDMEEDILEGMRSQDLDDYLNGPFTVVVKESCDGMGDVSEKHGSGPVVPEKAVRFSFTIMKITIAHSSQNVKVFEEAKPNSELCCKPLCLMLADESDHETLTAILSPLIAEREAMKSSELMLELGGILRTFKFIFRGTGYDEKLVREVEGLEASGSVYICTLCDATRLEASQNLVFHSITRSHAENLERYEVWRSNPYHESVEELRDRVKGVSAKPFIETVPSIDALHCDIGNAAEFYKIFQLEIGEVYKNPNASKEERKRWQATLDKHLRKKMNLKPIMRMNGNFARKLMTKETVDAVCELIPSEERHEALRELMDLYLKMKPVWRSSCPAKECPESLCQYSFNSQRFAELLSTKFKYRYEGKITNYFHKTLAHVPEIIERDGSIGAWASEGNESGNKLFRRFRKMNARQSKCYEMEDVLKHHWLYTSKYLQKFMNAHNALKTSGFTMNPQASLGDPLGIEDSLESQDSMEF
Assay: pull-down; streptavidin beads with 5'-biotinylated double-stranded canonical 12RSS DNA (AKN1/2, 4 ug) incubated with 30 ug cell-free extract of U87 or Nalm6 in PBSI buffer, 2 h at 4 C; bound proteins eluted in Laemmli buffer and western blotted for RAG1 and RAG2; the bait is DNA, not a protein

binding: binds
B1: RAG2 (protein, UniProt P55895 1-527)
chain: MSLQMVTVSNNIALIQPGFSLMNFDGQVFFFGQKGWPKRSCPTGVFHLDVKHNHVKLKPTIFSKDSCYLPPLRYPATCTFKGSLESEKHQYIIHGGKTPNNEVSDKIYVMSIVCKNNKKVTFRCTEKDLVGDVPEARYGHSINVVYSRGKSMGVLFGGRSYMPSTHRTTEKWNSVADCLPCVFLVDFEFGCATSYILPELQDGLSFHVSIAKNDTIYILGGHSLANNIRPANLYRIRVDLPLGSPAVNCTVLPGGISVSSAILTQTNNDEFVIVGGYQLENQKRMICNIISLEDNKIEIREMETPDWTPDIKHSKIWFGSNMGNGTVFLGIPGDNKQVVSEGFYFYMLKCAEDDTNEEQTTFTNSQTSTEDPGDSTPFEDSEEFCFSAEANSFDGDDEFDTYNEDDEEDESETGYWITCCPTCDVDINTWVPFYSTELNKPAMIYCSHGDGHWVHAQCMDLAERTLIHLSAGSNKYYCNEHVEIARALHTPQRVLPLKKPPMKSLRKKGSGKILTPAKKSFLRRLFD

Reference: article PMC12682277
